# Experimental data: PubChem BioAssay AID1794845 (National Center for Advancing Translational Sciences (NCATS), 2023)
# Sequences of proteins named here, by UniProt entry; tags and fusion partners are left off. A change or cut given only in a name is not applied to a line headed by its entry.
# UniProt C7C422: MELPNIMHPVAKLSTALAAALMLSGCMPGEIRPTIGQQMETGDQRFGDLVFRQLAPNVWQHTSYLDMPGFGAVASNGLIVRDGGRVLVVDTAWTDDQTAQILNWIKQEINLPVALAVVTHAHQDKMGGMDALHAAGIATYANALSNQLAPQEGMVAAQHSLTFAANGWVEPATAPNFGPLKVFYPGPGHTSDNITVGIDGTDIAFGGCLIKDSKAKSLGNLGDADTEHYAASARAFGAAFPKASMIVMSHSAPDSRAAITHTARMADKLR
# Out of some 6,900 compounds screened, fewer than 10 were called active. Calls follow the shape of the dose curve; as a rule, active = well fitted curve in the direction sought with a large enough effect; inconclusive = small, poorly fitted or top-dose-only effect, or another doubt; inactive = no such curve, though single readings can be large or run the other way. This is one part of the list.
# Target: Metallo-beta-lactamase type 2 (Klebsiella pneumoniae) (UniProt C7C422)
# Assay: qHTS to identify inhibitors of the New Delhi Metallo-beta-lactamase (NDM): primary screen against the NCATS Gemini Collection; also: % of control where 0% means no effect
# Conditions: NDM-1 enzyme, meropenem hydrolysis, absorbance 300 nm; at 38.4 µM (top of the series) unless noted
# Outline: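 Meropenem hydrolysis (50 uM final) by 2 nM NDM-1 read as 300 nm absorbance after 30 min, following >30 min compound–enzyme preincubation in HEPES pH 7.0 with 1 uM ZnSO4 and 0.01% Tween20.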
row,Compound,activity % (negative = inhibition)
1,CC1(C(=O)N2CCCC(CCc3ccc(F)c(F)c3)C2)CC1 (centres undefined),inactive: -2.26%
2,O=C(CCc1nc2ccc(Cl)cc2[nH]1)N1CCc2c(nc3cc(-c4ccccc4)[nH]n3c2=O)C1,inactive: 55.4%
3,O=C(NCc1ccco1)C1CCc2nc(N3CCN(C(=O)C4CCC4)CC3)sc2C1 (centres undefined),inactive: -0.684%
4,O=C1CCN(Cc2c[nH]c3ccccc23)CCCC(C(=O)NCc2ccccc2)CCN1 (centres undefined),inactive: 10.4%
5,Cc1nc(N2CCC(C(=O)NC3CCC(C)CC3)CC2)cc(C(F)(F)F)n1 (centres undefined),inactive: 19.7%
6,N#Cc1cccc(C(=O)NCc2nnc3ccc(-c4ccc(F)cc4)nn23)c1,inactive: 2.12%
7,CC(C)CCCC1CN(C(=O)c2c(O)cccc2O)CCO1 (centres undefined),inactive: 7.14%
8,CC(C)(C)CC(=O)N1CCC2(CC1)N(c1ccccc1)C(=O)CS2(=O)=O,inactive: -0.685%
9,COC(=O)C1=C(C)N=C2SC=C(CC(=O)NCCCN3CCCC3=O)N2C1c1ccccc1 (centres undefined),inactive: 1.2%
10,CCn1ccc(C(=O)N2CC3CC(C2)[C@H]2CCCC(=O)N2C3)n1 (some centres undefined),inactive: -6.47%
11,Cc1ccccc1Cn1nc2n(c1=O)CCCCC2,inactive: -2.25%
12,O=C(NCc1cccc(C(F)(F)F)c1)C1(CCO)CC12CCN(c1ncccn1)CC2 (centres undefined),inactive: -9.97%
13,O=S(=O)(C1CC1)N1CCn2c(nnc2-c2cncc(Br)c2)C1,inactive: 0.116%
14,CC(=O)N1CCN(C(=O)c2ccc3oc(-c4ccccn4)nc3c2)CC1,inactive: 39.4%
15,O=C1CCCCC(CNC(=O)c2cccc(F)c2)N1 (centres undefined),inactive: -10.6%
16,CCCOc1ccccc1C(C)Nc1nc(-c2cccnc2)nc2c1CNC2 (centres undefined),inactive: -5.05%
17,O=C(NC1CCCCC1)O[C@@H]1CO[C@H]2[C@@H]1OC[C@@H]2NS(=O)(=O)c1ccc(Cl)cc1,inactive: -2.4%
18,Cc1nocc1C(=O)N1C[C@@H](CO)[C@H](c2ccccn2)C1,inactive: 29.9%
19,COCCN(C)C[C@H]1C[C@@H](CO)CN(C(=O)c2ccc(C)c(Cl)c2)C1,inactive: 2.42%
20,O=C(c1cnc2n1CCN(CCc1ccccc1)CC2)N1CCC(c2ccccc2)CC1,inactive: -10.2% [at 57.5 µM]
21,COc1ccc(S(=O)(=O)N[C@H]2C[C@H]3C(=O)NC[C@@H](CCC(=O)NCc4ccccc4)N3C2)cc1,inactive: 13.4%

row,Compound,activity % (negative = inhibition)
1,O=C(c1ccc(=O)[nH]n1)N1CCc2ncnc(N3CCOCC3)c2CC1,inactive: 5.99%
2,O=C1NCCCCCCN(C(=O)c2cc(C3CC3)[nH]n2)[C@H]2CCCC[C@@H]12,inactive: 10.4%
3,COCC(c1ccccn1)N(C)Cc1cn(-c2ccccc2)nn1 (centres undefined),inactive: -3.43%
4,O=C(NCc1ccc(Cl)cc1)c1cc2n(n1)CC(c1ccc3c(c1)OCO3)OC2 (centres undefined),inactive: -1.91%
5,CC(C)c1ccc(-n2cc(CN3CCCC(O)(CN(C)C)C3)cn2)cc1 (centres undefined),inactive: -1.42%
6,CN1CCN([C@H]2CCN(C(=O)COCc3ccccc3)C[C@H]2CCCO)CC1,inactive: 1.92%
7,Cc1nc(CN2Cc3nc(OCc4ccc(F)cc4)ccc3OCC2=O)cs1,inactive: 14.4% [at 57.5 µM]
8,Cc1ccccc1C(=O)N1CCC(C(=O)N2CCC(c3nc4ncccc4[nH]3)CC2)C1 (centres undefined),inactive: 3.09%
9,Cc1cnc(C2CCOCC2)n1C1CCCN(S(=O)(=O)c2ccccc2)C1 (centres undefined),inactive: -2.37%
10,CN(C)c1ccc2ncc(Nc3cc(F)cc(N4CCOCC4)c3)n2n1,inactive: 14.6% [at 57.5 µM]
11,CCCn1cc(S(=O)(=O)N[C@H](CC)C2CC(O)C2)cn1 (some centres undefined),inactive: 8.44%
12,CCc1nc(C)sc1C(=O)N1C[C@@H](C(=O)O)[C@H](c2cccc(OC)c2)C1,inactive: -4.45%
13,CN1C(=O)CC[C@]2(C(=O)N3CCCCC3)CCCC[C@@H]12,inactive: 2.55%
14,C=CCN1CCN(C(=O)[C@@H]2Cc3c[nH]c4cccc(c34)[C@H](CC(C)C)N2)CC1,inactive: 5.03% [at 57.5 µM]
15,COc1cncc([C@@H](NC(=O)Cc2ccsc2)C2CC(O)C2)c1 (some centres undefined),inactive: -3.61%
16,Cc1noc2c(NCCc3ccccn3)cc(-c3ccccn3)nc12,inactive: 20.8% [at 57.5 µM]
17,O=C(O)c1cc2c(s1)CN(C1CCCC1)C2,inactive: 5.66%
18,Cc1ccccc1C(=O)N[C@H]1[C@H](O)[C@H](O)C[C@@H]1c1ccc(N2CCOCC2)nc1,inactive: 18% [at 57.5 µM]
19,NS(=O)(=O)c1ccc(C(=O)NC(Cc2ccncc2)C2CC(O)C2)cc1 (centres undefined),inactive: -0.861%
20,COc1cc(NC(=O)CCC2CCCN(Cc3nc(C(C)C)cs3)C2)cc(OC)c1 (centres undefined),inactive: -0.0953%
21,COc1ccc(-c2n[nH]c3c2CC(=O)N(c2ccccc2)C3)cn1,inactive: 31% [at 57.5 µM]

# 21 entries from above, bar-delimited.
row | Compound | activity % (negative = inhibition)
1 | O=C(c1ccc(=O)[nH]n1)N1CCc2ncnc(N3CCOCC3)c2CC1 | inactive: 5.99%
2 | O=C1NCCCCCCN(C(=O)c2cc(C3CC3)[nH]n2)[C@H]2CCCC[C@@H]12 | inactive: 10.4%
3 | COCC(c1ccccn1)N(C)Cc1cn(-c2ccccc2)nn1 (centres undefined) | inactive: -3.43%
4 | O=C(NCc1ccc(Cl)cc1)c1cc2n(n1)CC(c1ccc3c(c1)OCO3)OC2 (centres undefined) | inactive: -1.91%
5 | CC(C)c1ccc(-n2cc(CN3CCCC(O)(CN(C)C)C3)cn2)cc1 (centres undefined) | inactive: -1.42%
6 | CN1CCN([C@H]2CCN(C(=O)COCc3ccccc3)C[C@H]2CCCO)CC1 | inactive: 1.92%
7 | Cc1nc(CN2Cc3nc(OCc4ccc(F)cc4)ccc3OCC2=O)cs1 | inactive: 14.4% [at 57.5 µM]
8 | Cc1ccccc1C(=O)N1CCC(C(=O)N2CCC(c3nc4ncccc4[nH]3)CC2)C1 (centres undefined) | inactive: 3.09%
9 | Cc1cnc(C2CCOCC2)n1C1CCCN(S(=O)(=O)c2ccccc2)C1 (centres undefined) | inactive: -2.37%
10 | CN(C)c1ccc2ncc(Nc3cc(F)cc(N4CCOCC4)c3)n2n1 | inactive: 14.6% [at 57.5 µM]
11 | CCCn1cc(S(=O)(=O)N[C@H](CC)C2CC(O)C2)cn1 (some centres undefined) | inactive: 8.44%
12 | CCc1nc(C)sc1C(=O)N1C[C@@H](C(=O)O)[C@H](c2cccc(OC)c2)C1 | inactive: -4.45%
13 | CN1C(=O)CC[C@]2(C(=O)N3CCCCC3)CCCC[C@@H]12 | inactive: 2.55%
14 | C=CCN1CCN(C(=O)[C@@H]2Cc3c[nH]c4cccc(c34)[C@H](CC(C)C)N2)CC1 | inactive: 5.03% [at 57.5 µM]
15 | COc1cncc([C@@H](NC(=O)Cc2ccsc2)C2CC(O)C2)c1 (some centres undefined) | inactive: -3.61%
16 | Cc1noc2c(NCCc3ccccn3)cc(-c3ccccn3)nc12 | inactive: 20.8% [at 57.5 µM]
17 | O=C(O)c1cc2c(s1)CN(C1CCCC1)C2 | inactive: 5.66%
18 | Cc1ccccc1C(=O)N[C@H]1[C@H](O)[C@H](O)C[C@@H]1c1ccc(N2CCOCC2)nc1 | inactive: 18% [at 57.5 µM]
19 | NS(=O)(=O)c1ccc(C(=O)NC(Cc2ccncc2)C2CC(O)C2)cc1 (centres undefined) | inactive: -0.861%
20 | COc1cc(NC(=O)CCC2CCCN(Cc3nc(C(C)C)cs3)C2)cc(OC)c1 (centres undefined) | inactive: -0.0953%
21 | COc1ccc(-c2n[nH]c3c2CC(=O)N(c2ccccc2)C3)cn1 | inactive: 31% [at 57.5 µM]

# Remaining list, next part.

row,Compound,activity % (negative = inhibition)
1,C[S+](=O)([O-])N1Cc2ccccc2CC2(CCCN(Cc3ccccn3)C2)C1 (centres undefined),inactive: 4.7%
2,C[C@H]1[C@@H]2[C@@H](O)C([C@H](C)C(=O)NC3CCCCC3)CC[C@@]2(C)CC[C@@H]1NC(=O)C1CCCCC1 (some centres undefined),inactive: 1.3%
3,CN(C)S(=O)(=O)N1CCc2nn(C)c(=O)n2CC1,inactive: 10.1%
4,Cc1nc(C)c(C(=O)N2CCCC(COc3ccccc3C(=O)N3CCCC3)C2)s1 (centres undefined),inactive: -0.974%
5,COc1ccc(CN(C)C2CCCN(CCc3ccccc3)C2)c(OC)c1OC (centres undefined),inactive: -2.17%
6,Cn1c(CNC(=O)CC2CCOC3(CCN(S(C)(=O)=O)CC3)C2)nc2ccccc21 (centres undefined),inactive: -0.752%
7,O=C1CC2(CCN(C(=O)c3ccccn3)C2)Nc2ccccc2N1 (centres undefined),inactive: -2.18%
8,CCNC(=O)[C@@H]1C[C@H](NC(=O)c2ccc(=O)n(C)c2)CN1Cc1ccoc1,inactive: 4.43%
9,CCn1c(=O)c2ccnn2c2ccc(C(=O)NCc3ccc(N4CCOCC4)cc3)cc21,inactive: 7.99%
10,COc1ccccc1NC(=O)N1C[C@@H]2C[C@H](C1)c1c(/C=C/c3ccc(Cl)cc3)ccc(=O)n1C2,inactive: 6.97%
11,COc1cccc(N2C(=O)NC(=NC3CCCCC3)C23CCCN(Cc2ccsc2)C3)c1 (centres undefined),inactive: -1.22%
12,COC(=O)CC1CCN(C(=O)C2CC(=O)N(c3n[nH]c4cccc(F)c34)C2)CC1 (centres undefined),inactive: 3.61%
13,C=CCn1cc(CN2CCC(Oc3ccc4ccccc4c3)(C(=O)O)CC2)cn1,inactive: -0.276%
14,Cc1ccc(-c2cccc(CN3C4CCC3CN(C(C)C)C4)c2)c(C)c1,inactive: 7.9%
15,Cc1nc2ccc(C(=O)NCc3cc4n(n3)CCN(C(=O)N(C)C)C4)cc2o1,inactive: -1.85%
16,Cc1cc(F)ccc1NC(=O)CCC1CCCN(Cc2cn[nH]c2-c2cccc(F)c2)C1 (centres undefined),inactive: -6.26%
17,O=C(NCc1ccccn1)C1CCN(c2cc(C3CC(O)C3)ncn2)CC1 (centres undefined),inactive: 0.243%
18,CCOC(=O)C1(Cc2ccccc2)CCNCC1,inactive: -12.4%
19,Cc1noc(C)c1S(=O)(=O)N1CCC2(CC1)CC(OCC1CC1)CCO2 (centres undefined),inactive: 29.6%
20,O=C(C1CCCC1)N1Cc2ccccc2CC2(CCCN(Cc3ccccc3)C2)C1 (centres undefined),inactive: -6.05%
21,CCN1CCC2(CCC1=O)CN(Cc1ccc(C)c3ccccc13)CCN2C (centres undefined),inactive: -7.37%

row,Compound,activity % (negative = inhibition)
1,COc1ccc(C2(C(=O)N3C[C@@H](Oc4cccnc4)C[C@H]3C(=O)NC3CC3)CC2)cc1,inactive: -2.39%
2,O=C(CCc1ccc2c(c1)CN(C(=O)C1CC1)CCO2)NC1CCS(=O)(=O)C1 (centres undefined),inactive: -1.14%
3,COCCC1(C(=O)O)CCCN(Cc2cn[nH]c2C2CCCCC2)C1 (centres undefined),inactive: -0.903%
4,COc1cccc(-c2ccc(C(=O)NCCN[S+](=O)([O-])c3cccs3)cc2)c1,inactive: 5.43%
5,Cc1nc([C@@H]2CN(C(=O)CCc3c(C)noc3C)C[C@H]2C(N)=O)n[nH]1,inactive: -2.38%
6,O=C(N1CCCCCC1CN1CCOCC1)C1(c2ccccc2)CC1 (centres undefined),inactive: 12.4%
7,CN(CCc1ccccn1)[C@H]1[C@@H]2OC[C@@H](O2)[C@@H](NCc2ccc(-c3ccccc3)cc2)[C@@H]1O,inactive: 4.11%
8,O=C1CCN(C(=O)C2CCN(C(=O)c3ccc4ccccc4n3)CC2)CCCCCCN1,inactive: 8.72%
9,CCOCC(=O)N1CCC(N2C(=O)C3(CCCCC3)C2c2ccccc2)CC1 (centres undefined),inactive: -12.7%
10,Cc1cc(S(=O)(=O)N2CCCC2c2noc(COc3ccc(F)cc3)n2)ccc1F (centres undefined),inactive: 1.13%
11,Cc1noc(C)c1Cc1ccc(C(=O)NC2CCc3nnc(C)n3CC2)o1 (centres undefined),inactive: -6.81%
12,COc1ccccc1-c1cnc2n[nH]c(-c3ccc4c(c3)OCO4)c2n1,inactive: 3.54% [at 57.5 µM]
13,O=C1NC2(CCCN(Cc3cncs3)C2)COc2ccccc21 (centres undefined),inactive: -0.209%
14,COc1cccc(NCc2nnc(C(=O)N3CCC[C@@H]3c3cccc(F)c3)n2-c2ccccc2)c1,inactive: 1.91%
15,CN1CCOc2c(C(=O)NCCc3cnc[nH]3)cc(-c3ccccc3F)cc21,inactive: 7.82% [at 57.5 µM]
16,COCc1cc(=O)n(CC(=O)NCc2ccc(OC)cc2)c(N2CCOCC2)n1,inactive: 0.0069%
17,CC(C)CNc1ccc2c(n1)C(C)(C(=O)NCc1cccnc1)CN(Cc1ccccc1)C2 (centres undefined),inactive: -0.786%
18,Cn1nccc1C(=O)N1CCC(c2nc(CCOCC3CCCC3)no2)C1 (centres undefined),inactive: 27.1%
19,COCCN(C)C[C@@H]1CN(C(=O)Cn2ncc3ccccc3c2=O)C[C@@H]1CO,inactive: 7.38%
20,Cc1ccccc1NC(=O)N1CCC(N(CCC(C)C)C2CCOCC2)CC1,inactive: 3.7%
21,CN(CCc1ccccn1)C(=O)c1cn(Cc2cccc(C(F)(F)F)c2)nn1,inactive: 0.393%
